These are literature values, as cited in patent US8592415B2, “Selective kinase inhibitors” (Reaction Biology Corp., priority 2009, dated 2013).

Protein sequences, listed by entry. Tags and fused reporters are not part of them. Lines headed by an entry give the natural chain unless they say otherwise; changes in a name come on top.
UniProt P52333: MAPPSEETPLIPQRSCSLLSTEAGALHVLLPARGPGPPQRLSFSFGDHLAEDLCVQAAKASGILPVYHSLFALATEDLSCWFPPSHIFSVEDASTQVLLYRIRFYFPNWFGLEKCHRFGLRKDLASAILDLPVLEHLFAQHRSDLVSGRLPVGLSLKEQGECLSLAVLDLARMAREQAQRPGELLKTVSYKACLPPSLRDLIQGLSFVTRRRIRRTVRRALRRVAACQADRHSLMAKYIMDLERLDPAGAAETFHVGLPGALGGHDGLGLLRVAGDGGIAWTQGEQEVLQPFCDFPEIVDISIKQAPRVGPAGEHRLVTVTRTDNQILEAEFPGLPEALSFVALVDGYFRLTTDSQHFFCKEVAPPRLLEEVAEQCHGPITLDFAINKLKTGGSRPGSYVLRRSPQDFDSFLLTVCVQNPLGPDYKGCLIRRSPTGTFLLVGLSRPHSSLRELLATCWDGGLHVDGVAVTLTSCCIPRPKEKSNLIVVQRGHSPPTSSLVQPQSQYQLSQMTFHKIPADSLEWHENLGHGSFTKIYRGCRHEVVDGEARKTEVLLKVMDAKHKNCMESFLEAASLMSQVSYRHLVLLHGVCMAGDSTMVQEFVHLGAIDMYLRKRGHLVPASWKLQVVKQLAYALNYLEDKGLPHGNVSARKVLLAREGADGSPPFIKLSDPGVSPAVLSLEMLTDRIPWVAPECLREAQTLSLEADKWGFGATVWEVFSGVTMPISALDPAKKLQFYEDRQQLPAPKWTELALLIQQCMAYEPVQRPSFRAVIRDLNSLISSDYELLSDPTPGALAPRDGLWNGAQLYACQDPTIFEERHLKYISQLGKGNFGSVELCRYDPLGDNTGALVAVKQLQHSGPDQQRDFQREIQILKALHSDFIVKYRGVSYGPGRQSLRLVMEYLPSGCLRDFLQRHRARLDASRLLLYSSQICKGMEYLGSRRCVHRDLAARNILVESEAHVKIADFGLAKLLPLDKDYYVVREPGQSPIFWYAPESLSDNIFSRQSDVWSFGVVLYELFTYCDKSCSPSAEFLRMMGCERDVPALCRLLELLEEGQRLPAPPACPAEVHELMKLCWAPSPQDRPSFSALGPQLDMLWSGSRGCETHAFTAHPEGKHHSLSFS

The structures appear in SMILES notation.

For this series, the target named is JAK3 (Homo sapiens (Human), UniProt P52333). The note with it: cited from earlier work.

Consider `COc1cc2ncnc(Nc3ccc(O)c(Br)c3)c2cc1OC` [WHI-P-154], for which the “JAK3 IC50s” value is recorded as “low μM ranges”.
